Drawing on PubChem BioAssay AID330 (DTP/NCI, 2004), this text covers survivor count and T/C for 29 compounds.

The list does not hold the whole screen: it is rich in T/C values a quarter to a half above the control, in often repeated tests (any T/C) and in doses without a T/C. Other doses and runs of a compound stand elsewhere. T/C gives the treated animals as a percentage of the vehicle group. Some entries give survivors of the animals treated and no T/C: the source holds a T/C of zero for them, seemingly a mark for toxic or unscored doses. Some survivor counts are full or nearly so, which does not show that the dose was tolerated: the source hardly ever lists a survival T/C far under the control, and the zero likely stands for such cases as well. Survivors were counted at the toxicity check, usually on the fifth day, unless a day is given; later deaths do not show. Schedule codes are those of the source, read here as Q, the interval in days (D) or hours (H), X, the number of doses. Some entries hold several experiments; their values stand side by side, smallest first. For survival time, this PubChem deposit counts one and a half times the control or more as active, and values a quarter to a half above the control carry no call in these data; other NCI protocols may use other cut-offs. Some T/C values are followed by the survivors on the day toxicity was checked, most often the fifth; without a count, all were alive then.

This test relates to P388 leukemia ip, CD2F1 mice, survival T/C. The test is described as follows: NCI In Vivo Anticancer Drug Screen. Data for tumor model P388 Leukemia (intraperitoneal) in CD2F1 (CDF1) mice. The following applies: T/C endpoint: median survival time, higher T/C = longer survival.
Where [1] appears, read: dose: 25.0 mg/kg/injection, schedule: Q01DX009 (ip), vehicle: saline with Tween-80.
[2] abbreviates: dose: 50.0 mg/kg/injection, schedule: Q01DX009 (ip), vehicle: saline with Tween-80.
[3] abbreviates: dose: 200.0 mg/kg/injection, schedule: Q01DX009 (ip), vehicle: saline.
Where [4] appears, read: dose: 200.0 mg/kg/injection, schedule: Q01DX009 (ip), vehicle: saline with Tween-80.
[5] abbreviates: dose: 50.0 mg/kg/injection, schedule: Q01DX005 (ip), vehicle: Klucel (hydroxypropylcellulose) (HPC).
The mark [6] stands for this setting: dose: 100.0 mg/kg/injection, schedule: Q01DX005 (ip), vehicle: Klucel (hydroxypropylcellulose) (HPC).
Setting [7] is: dose: 8.0 mg/kg/injection, schedule: Q01DX009 (ip), vehicle: saline with Tween-80.
Setting [8] is: dose: 240.0 mg/kg/injection, schedule: Q01DX005 (ip), vehicle: saline with Tween-80.
Where [9] appears, read: dose: 100.0 mg/kg/injection, schedule: Q01DX009 (ip), vehicle: Klucel (hydroxypropylcellulose) (HPC).
The mark [10] stands for this setting: dose: 200.0 mg/kg/injection, schedule: Q01DX009 (ip), vehicle: Klucel (hydroxypropylcellulose) (HPC).
Setting [11] is: dose: 50.0 mg/kg/injection, schedule: Q01DX009 (ip), vehicle: Klucel (hydroxypropylcellulose) (HPC).
[12] abbreviates: dose: 100.0 mg/kg/injection, schedule: Q04DX003 (ip), vehicle: saline.
The mark [13] stands for this setting: dose: 400.0 mg/kg/injection, schedule: Q04DX003 (ip), vehicle: saline.
The mark [14] stands for this setting: dose: 100.0 mg/kg/injection, schedule: Q01DX009 (ip), vehicle: saline.
Setting [15] is: dose: 200.0 mg/kg/injection, schedule: Q01DX005 (ip), vehicle: saline with Tween-80.

As for `NS(=O)(=O)c1ccc2c(=O)c(C(=O)O)c[nH]c2c1`, the survivor count runs as follows: (dose: 12.5 mg/kg/injection, schedule: Q01DX009 (ip), vehicle: saline with Tween-80) 6 of 6; under setting [1], 6 of 6; under setting [2], 6 of 6; under setting [3], 6 of 6.

For the compound `S=C(Nc1ccccc1)SSC(Cl)(Cl)Cl`, the survivor count under setting [4] is 2 of 6.

Consider `CCN=C(NCC)Nc1ccc(NC(=O)Nc2ccc(NC(=O)Nc3ccc(NC(=NCC)NCC)cc3)cc2)cc1`, for which the T/C under setting [5] was 130 % of control. In addition, under setting [6], the T/C is 126 % of control and the survivor count was 6 of 6.

On to `COc1cccc2c1C(=O)c1c(O)c3c(c(O)c1C2=O)C[C@@](O)(C(=O)COC(=O)Cc1ccccc1)C[C@@H]3OC1CC(N)C(O)C(C)O1` (stereo partly specified), for which the T/C is 130 % of control (dose: 1.0 mg/kg/injection, schedule: Q01DX009 (ip), vehicle: saline with Tween-80) and 130 % of control under setting [7]. Further, the survivor count is, setting by setting: under setting [7], 10 of 10; (dose: 16.0 mg/kg/injection, schedule: Q01DX009 (ip), vehicle: saline with Tween-80) 6 of 10.

As for `FC(F)(F)C(F)(F)C(F)(F)C(F)(F)C(F)(F)C(F)(F)C[CH2][Sn]([Cl])([Cl])[CH2]CC(F)(F)C(F)(F)C(F)(F)C(F)(F)C(F)(F)C(F)(F)F`, the T/C under setting [8] is 125 % of control.

`Clc1nn2cnnc2c2ncccc12`: the survivor count under setting [9] was 0 of 6 and the survivor count under setting [10] was 0 of 6.

With `c1ccc2c(c1)[As]=c1ccccc1=[As]2` (stereo unspecified), the T/C (dose: 3.12 mg/kg/injection, schedule: Q01DX009 (ip), vehicle: saline) was 139 % of control and the T/C (dose: 6.25 mg/kg/injection, schedule: Q01DX009 (ip), vehicle: saline) was 145 % of control. Besides, the survivor count is, setting by setting: (dose: 12.5 mg/kg/injection, schedule: Q01DX009 (ip), vehicle: saline) 6 of 6; (dose: 25.0 mg/kg/injection, schedule: Q01DX009 (ip), vehicle: saline) 1 of 6; (dose: 50.0 mg/kg/injection, schedule: Q01DX009 (ip), vehicle: saline) 0 of 6.

Regarding `Nc1nc(SCC(=O)O)[nH]c(=O)c1NS(=O)(=O)c1ccccc1`, where the note is “dose: 240.0 mg/kg/injection, schedule: Q01DX005 (ip), vehicle: Klucel (hydroxypropylcellulose) (HPC)”, the T/C is 125 % of control.

On to `Cc1c(CCl)cc([N+](=O)[O-])cc1CCl`, for which the T/C under setting [11] was 135 % of control.

Consider `O=C(O)C1CCC[N-]1.[Cl][Pt][Cl]` (stereo unspecified), for which the T/C (dose: 44.0 mg/kg/injection, schedule: Q04DX003 (ip), vehicle: saline) was 134 % of control and the T/C (dose: 66.0 mg/kg/injection, schedule: Q04DX003 (ip), vehicle: saline) is 138 % of control. In addition, the survivor count (dose: 100.0 mg/kg/injection, schedule: Q04DX003 (ip), vehicle: water) is given as 2 of 6.

For `Cc1c(C(=O)O)nc(-c2ccc3c(n2)C(=O)C(N)=CC3=O)c2[nH]c3ccccc3c12`, the survivor count was 6 of 6 (dose: 1.6 mg/kg/injection, schedule: Q01DX009 (ip), vehicle: distilled water + Tween-80 + alcohol) and 6 of 6 (dose: 3.2 mg/kg/injection, schedule: Q01DX009 (ip), vehicle: distilled water + Tween-80 + alcohol).

For the compound `CC/C=c1/[nH]c(=O)/c(=C\c2ccc([N+](=O)[O-])cc2)[nH]c1=O`, the survivor count under setting [9] was 6 of 6.

Regarding `S=C(Oc1ccccc1)Oc1ccccc1`, the survivor count was 6 of 6 under setting [1], 6 of 6 under setting [2] and 4 of 6 under setting [4].

Regarding `O=C(O)c1ccccc1C(=O)O`, for the setting “dose: 50.0 mg/kg/injection, schedule: Q01DX009 (ip), vehicle: water”, the survivor count was 6 of 6.

As for `O=c1c(Br)cc(CN2CCOCC2)cc(CN2CCOCC2)c1O`, the survivor count under setting [4] is reported as 6 of 6.

As for `COC(=O)/C(C#N)=C(/SC)N(C)C`, under setting [4], the survivor count is given as 2 of 6.

As to `Cc1cc(C)c2c(=O)n(-c3ccccc3C)c(=S)n(-c3ccccc3C)c2n1`, the survivor count under setting [8] is reported as 6 of 6.

`O=C1C=C(Cl)C(=O)C2=C1CCCC2`: the survivor count runs as follows: (dose: 12.5 mg/kg/injection, schedule: Q04DX002 (ip), vehicle: saline with Tween-80) 5 of 6; (dose: 25.0 mg/kg/injection, schedule: Q04DX002 (ip), vehicle: saline with Tween-80) 3 of 6 and 4 of 6; (dose: 50.0 mg/kg/injection, schedule: Q04DX002 (ip), vehicle: saline with Tween-80) 0 of 6; (dose: 100.0 mg/kg/injection, schedule: Q04DX002 (ip), vehicle: saline with Tween-80) 0 of 6; (dose: 200.0 mg/kg/injection, schedule: Q04DX002 (ip), vehicle: saline with Tween-80) 0 of 6; (dose: 400.0 mg/kg/injection, schedule: Q04DX002 (ip), vehicle: saline with Tween-80) 0 of 6.

For `CCOC(=O)c1cc2c(OC)c(OC)ccc2cc1N`, the survivor count by setting is: (dose: 200.0 mg/kg/injection, schedule: Q01DX009 (ip), vehicle: other) 4 of 6; (dose: 400.0 mg/kg/injection, schedule: Q01DX009 (ip), vehicle: other) 1 of 6.

For the compound `CCCCCCCCCCCCn1ccnc1`, where the note is “dose: 400.0 mg/kg/injection, schedule: Q04DX003 (ip), vehicle: saline with Tween-80”, the survivor count is 0 of 6.

For `CC1(C)CC(NC2CCCCC2)=CC(=NC2CCCCC2)N1`, the survivor count runs as follows: (dose: 12.5 mg/kg/injection, schedule: Q01DX005 (ip), vehicle: Klucel (hydroxypropylcellulose) (HPC)) 6 of 6; under setting [5], 3 of 6; under setting [6], 2 of 6; (dose: 200.0 mg/kg/injection, schedule: Q01DX005 (ip), vehicle: Klucel (hydroxypropylcellulose) (HPC)) 0 of 6.

With `O=C(/C=N/O)Nc1ccccc1`, the T/C under setting [11] is 141 % of control. For the same compound, the survivor count under setting [10] is given as 2 of 6.

On to `COc1cc(Br)cc(/C=C(\C)[N+](=O)[O-])c1O`, for which the T/C under setting [12] was 126 % of control [5 of 6 alive]. Also, the survivor count under setting [12] is 5 of 6; the survivor count (dose: 200.0 mg/kg/injection, schedule: Q04DX003 (ip), vehicle: saline) is 5 of 6; the survivor count under setting [13] was 0 of 6.

With `CCOC(/C=C/c1ccccc1)OCC`, under setting [13], the T/C was 127 % of control.

Turning to `O=S1(=O)C2C=CC1CCCC2`, the survivor count is recorded as 6 of 6 under setting [14] and 6 of 6 under setting [3].

With `C[C@]12CC[C@H](O)CC1=CC[C@@H]1[C@@H]2CC[C@]2(C)C(=O)CC[C@@H]12`, under “dose: 400.0 mg/kg/injection, schedule: Q01DX005 (ip), vehicle: saline with Tween-80”, the survivor count is 2 of 5.

Regarding `c1ccc2c(c1)Sc1ccccc1N2CCCN1CCCC1`, the survivor count under setting [14] is 0 of 6; the survivor count (dose: 100.0 mg/kg/injection, schedule: Q04DX002 (ip), vehicle: saline) is recorded as 2 of 6; the survivor count under setting [3] is recorded as 0 of 6; the survivor count (dose: 200.0 mg/kg/injection, schedule: Q04DX002 (ip), vehicle: saline) is 0 of 6; the survivor count (dose: 400.0 mg/kg/injection, schedule: Q04DX002 (ip), vehicle: saline) was 0 of 6.

For the compound `CC1C2(c3ccccc3)C(C(=O)c3ccccc3)NC(c3ccccc3)C12c1ccccc1` (stereo unspecified), the survivor count under setting [15] is 6 of 6.

`COc1ccccc1N=NC1=C2Sc3ccccc3N=C1N(c1ccccn1)C(=S)N2c1ccc(Cl)cc1`: the survivor count is 6 of 6 (dose: 100.0 mg/kg/injection, schedule: Q01DX005 (ip), vehicle: saline with Tween-80) and 2 of 6 under setting [15].
